Assay results as given in PMC10960850.
No constants are given. Whether binding was seen depends on the method and setting. Binding seen in cells or lysates may run through a third protein. Some entries that bind do so weakly or less than the wild type.

Amino acid sequences for entries named in this document (tags omitted).
UniProt P25911: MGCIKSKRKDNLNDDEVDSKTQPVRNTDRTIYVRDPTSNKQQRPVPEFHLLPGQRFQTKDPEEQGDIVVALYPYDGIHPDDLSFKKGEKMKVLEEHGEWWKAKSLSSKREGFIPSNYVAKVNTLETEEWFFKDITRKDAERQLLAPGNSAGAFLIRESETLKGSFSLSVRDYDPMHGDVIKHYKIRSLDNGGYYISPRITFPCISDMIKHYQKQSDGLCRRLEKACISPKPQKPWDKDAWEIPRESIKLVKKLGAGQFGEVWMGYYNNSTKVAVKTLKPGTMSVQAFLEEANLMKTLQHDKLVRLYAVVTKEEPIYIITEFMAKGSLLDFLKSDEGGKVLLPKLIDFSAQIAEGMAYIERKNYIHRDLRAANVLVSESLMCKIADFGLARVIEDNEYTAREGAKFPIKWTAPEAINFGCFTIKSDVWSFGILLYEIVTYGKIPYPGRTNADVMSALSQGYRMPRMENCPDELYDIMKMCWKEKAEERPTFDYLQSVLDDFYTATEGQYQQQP

Target: LYN (mouse (endogenous in WT splenic B cells)) (UniProt P25911)
Assay: co-IP; endogenous proteins; purified splenic B cells activated with sAg (0 and 5 min), lysed with RIPA buffer; lysate with 1 ug of the indicated antibody for 2 h, then protein G Sepharose overnight; beads washed with PBS; immunoblot for USP25

binding: binds
B1: ubiquitin-specific protease 25 (USP25) (enzyme, UniProt P57080 1-1055)
chain: MTVEQNVLQQSAAQKHQQTFLNQLREITGINDAQILQQALKDSNGNLELAVAFLTAKNAKTPPQEETGYYQTALPGNDRYISVGSQADANVIDLTGDDKDDLQRAIALSLAESNRAFRETGITDEEQAISRVLEASIAENKACLKRTPIEVWRDSRNPYDRKRQEKAPVGLKNVGNTCWFSAVIQSLFNLLEFRRLVLNYKPPSNAQDLPRNQKEHRNLPFMRELRYLFALLVGTKRKYVDPSRAVEILKDAFKSNDSQQQDVSEFTHKLLDWLEDAFQMKAEEETDEEKPKNPMVELFYGRFLAMGVLEGKKFENTEMFGQYPLQVNGFKDLHECLEAAMIEGEIESLHSDNSGKSGQEHWFTELPPVLTFELSRFEFNQALGRPEKIHNKLEFPQVLYLDRYMHRNREITRIKREEIKRLKDYLTVLQQRLERYLSYGSGPKRFPLVDVLQYALEFASSKPVCTSPVDDIDASSSASGPLPSQSLPSTTEQQGPCASDLPGSSSPASGAALPLRSVIHKPFTQSRIPPDLPMHPAPRHITEEELCVLESCLHRWRTEIENDTRDLQESISRIHRTIELMYSDKSMIQVPYRLHAVLVHEGQANAGHYWAYIFDHRESRWMKYNDIAVTKSSWEELVRDSFGGYRNASAYCLMYIDDKAQFLIQEEFNKETGQALVGMETLPPDLRDFVEEDNQRFEKELEEWDTQLAQRSLQEKLLAAPKLREAEASATTAQAGGADYLEQPSRSDLSKHWKEETLRVIAKASHDLEDKGPETVLQSAIKLEYSRLVKLAQEDTPPETDYRLHHVLVYFIQNQAPKKIIEKTLLEQFGDRNLSFDERCHNIMKVAQAKLEMIKPEEVNLEEYEEWHADYKKFRETTMYLITGLENFQRESYIDSLLFLLCAYQNNKELLSKGPYRGHDGELISHYRRECLLKLNEQAAELFESGEDGDVNNGLIIMNEFIVPFLPLLLVDDMEEKDILAVEDMRNRWCSYLGQEMEANLQEKLTDFLPKLLDCSTEIKGFHEPPKLPSYSAHELCERFARIMLSLSRTPADGR
